These are yes or no findings as the source states them, for the method shown. Binding seen in cells or lysates may run through a third protein. Some entries that bind do so weakly or less than the wild type.
Legend:
Experiment in all cases: co-IP; Dynabeads Protein G loaded with antibody (40 ug; YPet or vATPase a1), incubated with 150 ug lysate of DIV 14 primary cortical neuronal cultures from LRRK2 transgenic rats for 3 days at 4 C; washed in PBS +/+; blotted for vATPase a1 / YPet
[1] = molecular target: human LRRK2-G2019S, YPet-tagged (human) (UniProt Q5S007)
[2] = molecular target: human wild-type leucine-rich repeat kinase 2 (hWT-LRRK2), YPet-tagged (human) (UniProt Q5S007)
[3] = molecular target: human LRRK2-R1441C, YPet-tagged (human) (UniProt Q5S007)

Amino acid sequences for entries named in this document (tags omitted). A change or cut given only in a name is not applied to a line headed by its entry.
UniProt Q5S007: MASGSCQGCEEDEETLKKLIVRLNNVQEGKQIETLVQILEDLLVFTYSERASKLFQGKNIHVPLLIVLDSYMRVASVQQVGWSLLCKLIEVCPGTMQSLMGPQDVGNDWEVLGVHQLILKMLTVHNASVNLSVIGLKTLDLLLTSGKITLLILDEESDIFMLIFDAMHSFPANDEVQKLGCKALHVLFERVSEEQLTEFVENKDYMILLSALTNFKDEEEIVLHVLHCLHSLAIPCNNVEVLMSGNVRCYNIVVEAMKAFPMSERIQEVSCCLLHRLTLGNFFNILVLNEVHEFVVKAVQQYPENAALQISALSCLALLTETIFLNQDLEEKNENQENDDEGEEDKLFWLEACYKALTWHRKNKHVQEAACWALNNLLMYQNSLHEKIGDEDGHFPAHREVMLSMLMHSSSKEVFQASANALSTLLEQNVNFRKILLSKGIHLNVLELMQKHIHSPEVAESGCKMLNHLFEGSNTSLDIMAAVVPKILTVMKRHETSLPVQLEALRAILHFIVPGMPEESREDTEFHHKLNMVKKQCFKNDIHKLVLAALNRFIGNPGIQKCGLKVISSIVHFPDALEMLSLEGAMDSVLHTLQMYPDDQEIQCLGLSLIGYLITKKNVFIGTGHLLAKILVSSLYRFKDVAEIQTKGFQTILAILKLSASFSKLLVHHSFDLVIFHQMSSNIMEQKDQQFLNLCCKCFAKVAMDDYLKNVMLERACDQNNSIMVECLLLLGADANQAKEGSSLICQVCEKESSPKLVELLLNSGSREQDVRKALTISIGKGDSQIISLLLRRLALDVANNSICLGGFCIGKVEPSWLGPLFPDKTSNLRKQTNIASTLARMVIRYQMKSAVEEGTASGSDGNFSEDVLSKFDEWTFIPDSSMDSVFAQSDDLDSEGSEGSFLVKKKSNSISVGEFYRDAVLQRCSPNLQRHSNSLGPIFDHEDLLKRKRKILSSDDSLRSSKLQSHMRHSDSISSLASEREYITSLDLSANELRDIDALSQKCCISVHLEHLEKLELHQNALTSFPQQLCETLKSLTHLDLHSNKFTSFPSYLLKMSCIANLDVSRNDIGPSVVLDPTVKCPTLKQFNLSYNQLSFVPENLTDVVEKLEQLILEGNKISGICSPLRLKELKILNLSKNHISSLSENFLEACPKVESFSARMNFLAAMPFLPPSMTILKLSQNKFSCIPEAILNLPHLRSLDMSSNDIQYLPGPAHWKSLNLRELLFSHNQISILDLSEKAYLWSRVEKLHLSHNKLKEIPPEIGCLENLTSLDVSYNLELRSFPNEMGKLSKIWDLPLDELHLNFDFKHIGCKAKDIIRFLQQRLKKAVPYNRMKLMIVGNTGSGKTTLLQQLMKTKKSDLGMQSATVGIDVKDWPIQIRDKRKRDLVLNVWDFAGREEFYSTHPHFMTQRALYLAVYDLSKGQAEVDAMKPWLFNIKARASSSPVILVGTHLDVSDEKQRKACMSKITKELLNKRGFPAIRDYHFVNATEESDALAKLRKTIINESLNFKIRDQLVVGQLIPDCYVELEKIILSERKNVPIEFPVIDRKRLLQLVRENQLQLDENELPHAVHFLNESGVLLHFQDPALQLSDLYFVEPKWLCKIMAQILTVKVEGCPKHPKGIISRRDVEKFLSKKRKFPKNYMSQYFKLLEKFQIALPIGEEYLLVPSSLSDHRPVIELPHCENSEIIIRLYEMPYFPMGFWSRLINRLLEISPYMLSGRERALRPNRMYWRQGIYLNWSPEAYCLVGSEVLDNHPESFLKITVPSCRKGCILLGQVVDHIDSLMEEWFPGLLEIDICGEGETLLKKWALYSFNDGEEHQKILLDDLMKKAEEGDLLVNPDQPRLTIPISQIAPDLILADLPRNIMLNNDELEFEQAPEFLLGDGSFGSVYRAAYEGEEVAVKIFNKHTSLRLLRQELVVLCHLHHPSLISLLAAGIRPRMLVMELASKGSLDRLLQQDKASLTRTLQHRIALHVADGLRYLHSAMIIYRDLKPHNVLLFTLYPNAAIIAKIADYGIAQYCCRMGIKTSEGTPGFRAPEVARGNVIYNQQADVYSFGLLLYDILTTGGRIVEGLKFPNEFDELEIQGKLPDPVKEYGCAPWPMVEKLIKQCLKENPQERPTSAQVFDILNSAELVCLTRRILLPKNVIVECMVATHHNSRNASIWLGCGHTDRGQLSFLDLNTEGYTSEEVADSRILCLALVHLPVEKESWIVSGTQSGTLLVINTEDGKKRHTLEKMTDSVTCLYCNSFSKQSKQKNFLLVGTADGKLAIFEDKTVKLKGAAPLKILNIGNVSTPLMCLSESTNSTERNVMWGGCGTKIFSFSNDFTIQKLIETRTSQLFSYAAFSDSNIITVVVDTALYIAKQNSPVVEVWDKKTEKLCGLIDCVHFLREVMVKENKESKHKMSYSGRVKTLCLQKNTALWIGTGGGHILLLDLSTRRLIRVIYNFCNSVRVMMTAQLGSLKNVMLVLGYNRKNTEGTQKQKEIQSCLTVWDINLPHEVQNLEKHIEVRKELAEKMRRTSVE
UniProt P25286: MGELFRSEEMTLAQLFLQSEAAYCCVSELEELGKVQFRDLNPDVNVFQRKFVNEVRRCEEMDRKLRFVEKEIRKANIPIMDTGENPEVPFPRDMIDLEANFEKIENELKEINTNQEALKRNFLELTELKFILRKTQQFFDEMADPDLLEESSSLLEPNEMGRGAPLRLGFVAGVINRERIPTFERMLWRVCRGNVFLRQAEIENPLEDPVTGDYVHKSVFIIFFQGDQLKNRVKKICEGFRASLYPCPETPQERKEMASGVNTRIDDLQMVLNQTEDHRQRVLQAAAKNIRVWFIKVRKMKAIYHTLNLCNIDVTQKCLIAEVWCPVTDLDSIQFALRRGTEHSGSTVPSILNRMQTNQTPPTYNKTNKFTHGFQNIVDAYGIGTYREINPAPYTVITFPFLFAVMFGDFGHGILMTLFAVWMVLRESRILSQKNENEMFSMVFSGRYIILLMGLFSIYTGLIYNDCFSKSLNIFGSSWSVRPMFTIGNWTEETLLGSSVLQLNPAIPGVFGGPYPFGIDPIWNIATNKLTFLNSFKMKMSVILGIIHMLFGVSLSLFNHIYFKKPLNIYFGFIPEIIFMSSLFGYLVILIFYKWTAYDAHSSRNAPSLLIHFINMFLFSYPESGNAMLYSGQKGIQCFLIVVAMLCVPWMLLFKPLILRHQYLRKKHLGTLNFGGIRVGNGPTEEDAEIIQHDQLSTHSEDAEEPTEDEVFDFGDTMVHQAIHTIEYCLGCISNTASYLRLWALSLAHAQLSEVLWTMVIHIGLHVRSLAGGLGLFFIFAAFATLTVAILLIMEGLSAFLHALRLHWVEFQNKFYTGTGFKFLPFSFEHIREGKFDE

For “a1 subunit of the v-type H+ ATPase proton pump (vATPase a1) (from UniProt P25286 1-838)”, the binding [1] was “binds”, the binding [2] was “binds” and the binding [3] was “no binding”.

From paper PMC6687951
